Test results reported in publication PMC5004862.
These are yes or no findings as the source states them, for the method shown. Binding seen in cells or lysates may run through a third protein. Some binding calls cover weakened binding; strength is not graded here.

Chains of the proteins cited; added tags and fusions are not shown.
UniProt P16054: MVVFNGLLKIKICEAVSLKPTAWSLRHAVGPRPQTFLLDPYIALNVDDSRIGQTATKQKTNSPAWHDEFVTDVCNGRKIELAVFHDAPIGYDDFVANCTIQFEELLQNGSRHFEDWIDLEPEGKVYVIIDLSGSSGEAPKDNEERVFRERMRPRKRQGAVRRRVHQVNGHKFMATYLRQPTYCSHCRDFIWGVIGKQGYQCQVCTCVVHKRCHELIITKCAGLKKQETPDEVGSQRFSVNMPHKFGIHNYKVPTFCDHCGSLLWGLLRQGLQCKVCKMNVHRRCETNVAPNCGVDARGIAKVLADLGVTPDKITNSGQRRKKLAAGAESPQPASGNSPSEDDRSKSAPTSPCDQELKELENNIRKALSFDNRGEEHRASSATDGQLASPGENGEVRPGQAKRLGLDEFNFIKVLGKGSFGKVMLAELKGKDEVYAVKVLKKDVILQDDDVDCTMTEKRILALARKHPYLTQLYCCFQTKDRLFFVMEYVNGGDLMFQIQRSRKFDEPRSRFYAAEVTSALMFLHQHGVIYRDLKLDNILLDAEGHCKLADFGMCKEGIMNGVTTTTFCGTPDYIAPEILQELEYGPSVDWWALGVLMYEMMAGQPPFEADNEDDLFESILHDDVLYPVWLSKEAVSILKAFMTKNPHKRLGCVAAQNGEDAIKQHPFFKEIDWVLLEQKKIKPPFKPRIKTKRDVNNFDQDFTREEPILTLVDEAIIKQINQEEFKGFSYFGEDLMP

Target: T1, mitochondrial aldehyde dehydrogenase 2 (ALDH2) (mouse (endogenous in 3T3-L1)) (UniProt P47738)
T1 sequence: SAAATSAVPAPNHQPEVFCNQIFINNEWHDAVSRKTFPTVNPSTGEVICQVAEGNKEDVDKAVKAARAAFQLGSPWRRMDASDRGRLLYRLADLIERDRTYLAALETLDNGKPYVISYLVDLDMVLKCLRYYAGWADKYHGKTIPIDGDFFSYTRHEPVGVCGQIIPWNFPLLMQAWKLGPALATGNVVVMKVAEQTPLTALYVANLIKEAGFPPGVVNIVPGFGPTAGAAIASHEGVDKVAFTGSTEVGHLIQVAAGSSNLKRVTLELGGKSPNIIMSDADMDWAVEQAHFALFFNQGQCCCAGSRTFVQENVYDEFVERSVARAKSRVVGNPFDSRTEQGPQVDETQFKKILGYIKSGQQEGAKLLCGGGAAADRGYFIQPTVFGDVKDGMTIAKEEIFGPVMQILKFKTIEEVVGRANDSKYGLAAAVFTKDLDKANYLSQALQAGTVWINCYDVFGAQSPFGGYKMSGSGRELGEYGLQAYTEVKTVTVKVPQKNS
Assay: co-IP; extracts of 3T3-L1 cells harvested at the indicated times of adipocyte differentiation, NP40 cell lysis buffer; anti-ALDH2 or anti-PKCε (or IgG) coupled to Dynabeads Protein A; immunoblot for PKCε or ALDH2

protein kinase C ε (PKCε) (from UniProt P16054 1-737) (enzyme)
binding: binds
